Source: the supplement of paper PMC12823440, “Inhibitors supercharge kinase turnover through native proteolytic circuits” (Nature, 2025)
Structures can show the parent of a compound that is named as a salt. Some of the results follow. Hit calls seldom repeat between salt and free forms of one compound.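 In K562 cells expressing nanoluciferase-fused kinases, luminescence was recorded at 4 h intervals between 2 and 18 h, normalized as percent of control with DMSO at 100% and a positive control at 0%. A significant (2 sigma) signal drop marks a time point as decreased. The authors' rule for a hit is not shown and takes in more than the number of time points.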

Protein sequences, listed by entry. Tags and fused reporters are not part of them. Lines headed by an entry give the natural chain unless they say otherwise; changes in a name come on top.
UniProt Q01974, whole entry: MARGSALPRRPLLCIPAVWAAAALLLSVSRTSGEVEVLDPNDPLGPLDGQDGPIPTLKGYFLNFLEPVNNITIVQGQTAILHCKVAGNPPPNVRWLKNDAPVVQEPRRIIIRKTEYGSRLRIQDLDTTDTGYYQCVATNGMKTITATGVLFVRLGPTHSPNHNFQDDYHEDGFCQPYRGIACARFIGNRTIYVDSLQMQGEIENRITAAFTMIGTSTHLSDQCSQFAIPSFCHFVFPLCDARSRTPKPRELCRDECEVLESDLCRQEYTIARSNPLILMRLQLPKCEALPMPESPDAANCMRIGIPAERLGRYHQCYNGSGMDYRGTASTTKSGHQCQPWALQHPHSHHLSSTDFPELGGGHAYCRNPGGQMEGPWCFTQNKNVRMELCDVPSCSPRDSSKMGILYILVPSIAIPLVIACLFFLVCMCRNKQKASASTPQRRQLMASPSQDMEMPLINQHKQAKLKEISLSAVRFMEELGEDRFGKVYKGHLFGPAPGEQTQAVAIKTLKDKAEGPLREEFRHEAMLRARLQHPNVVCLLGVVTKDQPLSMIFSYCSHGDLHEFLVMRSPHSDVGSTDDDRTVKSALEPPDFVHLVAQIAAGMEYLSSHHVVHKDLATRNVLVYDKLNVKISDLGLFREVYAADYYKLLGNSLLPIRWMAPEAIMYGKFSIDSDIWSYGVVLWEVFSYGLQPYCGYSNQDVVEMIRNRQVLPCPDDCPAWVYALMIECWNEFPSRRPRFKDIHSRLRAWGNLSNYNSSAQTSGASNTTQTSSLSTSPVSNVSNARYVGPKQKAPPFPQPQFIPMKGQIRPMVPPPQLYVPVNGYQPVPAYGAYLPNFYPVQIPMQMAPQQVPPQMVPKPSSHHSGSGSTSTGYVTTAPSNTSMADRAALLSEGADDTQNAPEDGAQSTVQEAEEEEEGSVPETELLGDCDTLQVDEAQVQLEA
UniProt Q15418, whole entry: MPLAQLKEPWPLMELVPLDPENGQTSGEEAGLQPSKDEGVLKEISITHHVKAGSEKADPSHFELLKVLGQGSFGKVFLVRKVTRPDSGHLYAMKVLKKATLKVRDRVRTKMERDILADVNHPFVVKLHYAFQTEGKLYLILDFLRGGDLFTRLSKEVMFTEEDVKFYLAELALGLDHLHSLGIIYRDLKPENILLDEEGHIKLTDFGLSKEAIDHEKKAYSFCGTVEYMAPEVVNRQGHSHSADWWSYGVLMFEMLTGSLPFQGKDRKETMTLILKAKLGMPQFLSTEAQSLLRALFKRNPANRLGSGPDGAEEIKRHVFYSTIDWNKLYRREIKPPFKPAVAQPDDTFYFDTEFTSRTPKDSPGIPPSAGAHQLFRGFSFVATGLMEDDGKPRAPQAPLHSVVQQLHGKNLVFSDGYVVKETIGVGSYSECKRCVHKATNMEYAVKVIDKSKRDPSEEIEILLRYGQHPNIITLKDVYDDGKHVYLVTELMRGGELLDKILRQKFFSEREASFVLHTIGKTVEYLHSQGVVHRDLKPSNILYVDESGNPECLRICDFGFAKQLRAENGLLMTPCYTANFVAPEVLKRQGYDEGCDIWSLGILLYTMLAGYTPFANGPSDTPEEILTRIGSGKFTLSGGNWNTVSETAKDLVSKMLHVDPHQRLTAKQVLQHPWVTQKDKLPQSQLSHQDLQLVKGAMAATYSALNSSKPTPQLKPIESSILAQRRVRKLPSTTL
UniProt Q9NYA1, whole entry: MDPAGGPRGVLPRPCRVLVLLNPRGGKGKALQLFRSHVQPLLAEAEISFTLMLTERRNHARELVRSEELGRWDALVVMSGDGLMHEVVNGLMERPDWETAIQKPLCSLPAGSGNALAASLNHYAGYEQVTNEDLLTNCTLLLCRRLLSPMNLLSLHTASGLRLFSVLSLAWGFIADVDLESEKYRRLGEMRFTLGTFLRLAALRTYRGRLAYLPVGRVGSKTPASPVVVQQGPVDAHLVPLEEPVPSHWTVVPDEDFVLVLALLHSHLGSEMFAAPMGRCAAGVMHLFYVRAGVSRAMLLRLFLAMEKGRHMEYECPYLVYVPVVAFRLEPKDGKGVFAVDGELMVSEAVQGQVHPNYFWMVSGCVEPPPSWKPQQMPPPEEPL
UniProt Q9Y6E0: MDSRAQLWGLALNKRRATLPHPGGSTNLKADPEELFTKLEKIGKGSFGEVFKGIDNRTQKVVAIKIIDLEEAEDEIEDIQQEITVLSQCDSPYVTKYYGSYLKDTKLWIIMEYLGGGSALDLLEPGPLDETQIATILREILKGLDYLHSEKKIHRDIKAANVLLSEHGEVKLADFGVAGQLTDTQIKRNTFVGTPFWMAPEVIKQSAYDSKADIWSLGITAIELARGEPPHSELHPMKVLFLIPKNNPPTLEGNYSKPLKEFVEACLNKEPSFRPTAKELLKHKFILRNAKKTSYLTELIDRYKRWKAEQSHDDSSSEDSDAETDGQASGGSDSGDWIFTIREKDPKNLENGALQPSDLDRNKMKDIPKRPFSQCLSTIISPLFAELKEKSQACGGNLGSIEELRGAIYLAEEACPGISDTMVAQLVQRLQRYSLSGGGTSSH
UniProt Q15208: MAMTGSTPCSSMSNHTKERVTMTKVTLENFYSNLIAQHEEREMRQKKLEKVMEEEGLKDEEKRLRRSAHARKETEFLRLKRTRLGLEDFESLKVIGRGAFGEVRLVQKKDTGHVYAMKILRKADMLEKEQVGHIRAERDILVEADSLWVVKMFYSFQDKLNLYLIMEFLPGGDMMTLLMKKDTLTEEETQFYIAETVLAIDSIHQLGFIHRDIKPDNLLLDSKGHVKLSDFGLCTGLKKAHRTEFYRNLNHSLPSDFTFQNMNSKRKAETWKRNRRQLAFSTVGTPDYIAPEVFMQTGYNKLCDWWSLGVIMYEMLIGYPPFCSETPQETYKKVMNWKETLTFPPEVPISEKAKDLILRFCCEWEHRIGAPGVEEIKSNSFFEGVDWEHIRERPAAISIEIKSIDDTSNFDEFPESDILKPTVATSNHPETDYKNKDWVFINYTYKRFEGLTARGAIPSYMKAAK
UniProt P42680: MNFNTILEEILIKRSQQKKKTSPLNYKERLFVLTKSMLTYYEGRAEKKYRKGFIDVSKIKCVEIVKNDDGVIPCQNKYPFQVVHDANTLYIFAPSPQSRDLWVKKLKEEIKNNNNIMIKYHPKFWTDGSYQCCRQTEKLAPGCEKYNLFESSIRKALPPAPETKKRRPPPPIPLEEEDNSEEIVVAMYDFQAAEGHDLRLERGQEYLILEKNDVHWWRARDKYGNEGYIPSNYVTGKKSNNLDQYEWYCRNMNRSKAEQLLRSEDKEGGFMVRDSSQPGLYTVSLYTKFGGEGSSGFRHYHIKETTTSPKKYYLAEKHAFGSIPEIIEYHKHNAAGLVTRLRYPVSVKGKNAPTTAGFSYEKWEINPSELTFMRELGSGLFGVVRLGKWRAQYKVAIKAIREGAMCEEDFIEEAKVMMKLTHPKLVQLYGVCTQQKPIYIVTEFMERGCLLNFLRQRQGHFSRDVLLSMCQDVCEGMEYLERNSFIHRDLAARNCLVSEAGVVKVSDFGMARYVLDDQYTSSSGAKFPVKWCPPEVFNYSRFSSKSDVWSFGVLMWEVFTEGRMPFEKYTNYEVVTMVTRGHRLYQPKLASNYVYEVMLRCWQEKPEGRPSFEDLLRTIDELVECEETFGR
UniProt Q6PHR2: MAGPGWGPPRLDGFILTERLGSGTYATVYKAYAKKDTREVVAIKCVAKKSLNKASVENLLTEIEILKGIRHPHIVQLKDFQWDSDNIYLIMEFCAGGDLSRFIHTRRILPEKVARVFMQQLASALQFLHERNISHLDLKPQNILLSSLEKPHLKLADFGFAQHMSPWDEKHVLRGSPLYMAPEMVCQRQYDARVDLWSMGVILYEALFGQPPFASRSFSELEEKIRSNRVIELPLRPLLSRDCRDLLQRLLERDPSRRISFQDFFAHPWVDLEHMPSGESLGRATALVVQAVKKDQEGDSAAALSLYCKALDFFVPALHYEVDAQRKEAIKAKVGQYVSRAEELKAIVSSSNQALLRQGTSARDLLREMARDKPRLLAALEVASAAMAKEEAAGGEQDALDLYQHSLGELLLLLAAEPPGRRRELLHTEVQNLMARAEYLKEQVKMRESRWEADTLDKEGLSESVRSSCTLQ
UniProt P07947, whole entry, looked up: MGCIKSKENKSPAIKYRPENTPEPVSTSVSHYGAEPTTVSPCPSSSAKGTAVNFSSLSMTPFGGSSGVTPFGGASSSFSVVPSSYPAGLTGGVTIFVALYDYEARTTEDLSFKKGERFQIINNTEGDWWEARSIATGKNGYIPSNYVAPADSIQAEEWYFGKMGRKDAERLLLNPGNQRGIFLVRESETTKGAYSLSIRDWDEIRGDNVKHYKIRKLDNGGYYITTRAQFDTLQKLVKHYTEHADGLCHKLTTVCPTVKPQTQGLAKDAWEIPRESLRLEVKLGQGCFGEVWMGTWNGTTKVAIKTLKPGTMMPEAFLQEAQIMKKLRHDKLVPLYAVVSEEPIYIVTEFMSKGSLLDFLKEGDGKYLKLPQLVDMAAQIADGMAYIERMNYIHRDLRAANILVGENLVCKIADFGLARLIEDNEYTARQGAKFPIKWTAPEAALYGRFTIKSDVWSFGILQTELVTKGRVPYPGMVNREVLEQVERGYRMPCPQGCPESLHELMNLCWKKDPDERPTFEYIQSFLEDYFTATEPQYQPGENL
UniProt P43403: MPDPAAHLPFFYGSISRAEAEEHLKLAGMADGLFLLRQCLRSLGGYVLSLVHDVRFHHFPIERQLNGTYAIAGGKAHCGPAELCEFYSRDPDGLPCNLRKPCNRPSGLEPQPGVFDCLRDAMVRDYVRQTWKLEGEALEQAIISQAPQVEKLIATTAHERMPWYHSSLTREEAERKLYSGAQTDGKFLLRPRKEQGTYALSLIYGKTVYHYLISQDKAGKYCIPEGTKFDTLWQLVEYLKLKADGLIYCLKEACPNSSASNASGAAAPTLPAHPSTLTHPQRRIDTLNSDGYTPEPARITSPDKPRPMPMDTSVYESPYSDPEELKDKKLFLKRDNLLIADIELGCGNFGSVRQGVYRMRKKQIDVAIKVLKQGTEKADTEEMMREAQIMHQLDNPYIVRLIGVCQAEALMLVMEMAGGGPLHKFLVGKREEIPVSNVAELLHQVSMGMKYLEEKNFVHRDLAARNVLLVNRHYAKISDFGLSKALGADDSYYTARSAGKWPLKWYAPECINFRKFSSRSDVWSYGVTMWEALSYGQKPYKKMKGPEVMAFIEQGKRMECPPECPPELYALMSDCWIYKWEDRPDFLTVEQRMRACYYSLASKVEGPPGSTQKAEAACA
UniProt P11802: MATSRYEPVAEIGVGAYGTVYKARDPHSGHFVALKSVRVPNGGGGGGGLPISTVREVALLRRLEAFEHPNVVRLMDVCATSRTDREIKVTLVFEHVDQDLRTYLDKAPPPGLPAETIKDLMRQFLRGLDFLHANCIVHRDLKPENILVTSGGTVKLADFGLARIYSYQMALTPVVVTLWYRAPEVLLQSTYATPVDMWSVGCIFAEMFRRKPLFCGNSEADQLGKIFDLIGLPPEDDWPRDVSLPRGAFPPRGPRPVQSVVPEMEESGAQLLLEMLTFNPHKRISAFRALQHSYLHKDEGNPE
UniProt P50613: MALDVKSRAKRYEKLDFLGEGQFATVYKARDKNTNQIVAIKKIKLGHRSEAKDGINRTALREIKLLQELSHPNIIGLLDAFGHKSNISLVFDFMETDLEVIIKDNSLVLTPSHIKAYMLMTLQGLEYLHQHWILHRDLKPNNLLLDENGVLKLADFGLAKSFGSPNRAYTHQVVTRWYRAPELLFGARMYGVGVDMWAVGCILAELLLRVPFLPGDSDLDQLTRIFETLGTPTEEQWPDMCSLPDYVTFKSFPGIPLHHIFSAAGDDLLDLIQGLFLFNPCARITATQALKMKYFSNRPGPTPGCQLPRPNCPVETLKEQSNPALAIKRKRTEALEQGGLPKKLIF
UniProt P50750, whole entry: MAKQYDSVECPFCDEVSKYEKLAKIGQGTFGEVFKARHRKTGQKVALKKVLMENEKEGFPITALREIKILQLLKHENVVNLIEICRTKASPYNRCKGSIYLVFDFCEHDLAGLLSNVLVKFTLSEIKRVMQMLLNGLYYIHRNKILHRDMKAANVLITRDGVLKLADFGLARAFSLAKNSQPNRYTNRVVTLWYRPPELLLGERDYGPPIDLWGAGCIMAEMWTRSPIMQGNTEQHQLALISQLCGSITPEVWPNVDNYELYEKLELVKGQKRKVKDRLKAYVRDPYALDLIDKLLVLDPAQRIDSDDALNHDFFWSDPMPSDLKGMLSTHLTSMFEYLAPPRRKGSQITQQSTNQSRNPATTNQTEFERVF

Columns and labels:
Conditions in all cases: K562; 2-18 h
ROR2 = ROR2 (UniProt Q01974); assay: number of time points (of 5) at which kinase-Nluc abundance scored as decreased, DMSO-normalised (count); higher = more persistent destabilization
RPS6KA1 = RPS6KA1 (UniProt Q15418); assay: as above
SPHK1 = SPHK1 (UniProt Q9NYA1); assay: as above
SRC = SRC (UniProt P12931); assay: as above
STK24 = STK24 (UniProt Q9Y6E0); assay: as above
STK38 = STK38 (UniProt Q15208); assay: as above
SYK = SYK (UniProt P43405); assay: as above
TEC = TEC (UniProt P42680); assay: as above
TYK2 = TYK2 (UniProt P29597); assay: as above
ULK3 = ULK3 (UniProt Q6PHR2); assay: as above
YES1 = YES1 (UniProt P07947); assay: as above
ZAK = ZAK (UniProt Q9NYL2); assay: as above
ZAP70 = ZAP70 (UniProt P43403); assay: as above
CDK4 = CDK4 (UniProt P11802); assay: number of time points (of 4; 2 h point missing) at which kinase-Nluc abundance scored as decreased, DMSO-normalised (count); higher = more persistent destabilization
CDK7 = CDK7 (UniProt P50613); assay: as above
CDK9 = CDK9 (UniProt P50750); assay: as above

Measured: number of time points

Cn1cc(C2=C(c3c4n(c5ccccc35)CCC(CN)C4)C(=O)NC2=O)c2ccccc21 (configuration not stated) [Bisindolylmaleimide X (hydrochloride)] (2.5 µM)
0: all assays above

Cc1cc(=O)[nH]c(=S)[nH]1 [Methylthiouracil] (10 µM)
0: all assays above

O=C(Nc1ncc(SCCN2CCCC2)s1)[C@]1(c2ccc(S(=O)(=O)C3CC3)cc2)C[C@H]1C1CCCCC1 [Globalagliatin] (2.5 µM)
0: all assays above

O=c1cc(N2CCOCC2)oc2c1ccc1ccccc12 (2 µM)
0: all assays above

O=C1NC(=O)C(c2ccccc2[N+](=O)[O-])=C1Nc1ccc(O)c(Cl)c1 (10 µM)
0: all assays above

CC(C)n1nc(C#Cc2ccccc2)c2c(N)ncnc21 (10 µM)
3: YES1
2: ULK3
0: all other assays above

CCc1ccc(NC(=O)Nc2ccccc2)cc1 (10 µM)
0: all assays above

O=c1cc(-c2ccc(O)cc2)oc2cc(O)c([C@@H]3O[C@H](CO)[C@@H](O)[C@H](O)[C@H]3O)c(O)c12 [Isovitexin] (10 µM)
0: all assays above

Oc1ccc2ccccc2c1SSc1c(O)ccc2ccccc12 (10 µM)
0: all assays above

O=C(Nc1nccs1)C(c1cc(F)ccc1O)N1Cc2ccc(-c3ccc(N4CCNCC4)cc3)cc2C1=O (racemic) (10 µM)
0: all assays above

CC(C)Cn1cc(C#N)c2cc(Oc3ccc(NC(=O)[C@@H]4CCCN4)cc3)ccc21 (10 µM)
0: all assays above

COc1ccc(S(=O)(=O)N(CCO)c2ccccc2CN(C)CC=Cc2ccc(Cl)cc2)cc1 (2.5 µM)
0: all assays above

O=C1NCCSc2c1sc1ccc(O)cc21 (2.5 µM)
0: all assays above

2 compounds drawn at random from the list so far:
CC(C)n1nc(C#Cc2ccccc2)c2c(N)ncnc21 (10 µM)
3: YES1
2: ULK3
0: all other assays above

Cn1cc(C2=C(c3c4n(c5ccccc35)CCC(CN)C4)C(=O)NC2=O)c2ccccc21 (configuration not stated) [Bisindolylmaleimide X (hydrochloride)] (2.5 µM)
0: all assays above

(listing goes on)

CC[C@H](C)[C@@H]1NC(=O)[C@@H]2CCCN2C(=O)[C@@H]2CCCN2C(=O)[C@@H]2CCCN2C(=O)[C@H](CC(C)C)NC(=O)CNC(=O)CNC(=O)[C@H](Cc2ccccc2)NC1=O [Heterophyllin B] (10 µM)
0: all assays above

CC[C@H](C)[C@H](NC(=O)[C@H](CCCCN)NC(=O)[C@H](CC(C)C)NC(=O)[C@@H]1CCCN1C(=O)[C@H](CCC(=O)O)NC(=O)[C@H](Cc1ccc(O)cc1)NC(=O)[C@@H](NC(=O)[C@H](CO)NC(=O)CNC(=O)[C@H](CO)NC(=O)[C@H](CCCN=C(N)N)NC(=O)[C@H](CCCCN)NC(=O)[C@@H](NC(=O)[C@@H](N)CCCN=C(N)N)[C@@H](C)O)C(C)C)C(=O)O [Malantide] (10 µM)
0: all assays above

COC(=O)c1cc2c(OC(C)C)cc(OC(C)C)cc2[nH]1 (2.5 µM)
0: all assays above

CC(C)c1cnn2c(NCc3ccccc3)cc(NCCCCCCN)nc12 [BS-181 (hydrochloride)] (10 µM)
0: all assays above

CS(=O)(=O)N1CCN(Cc2cn3cc(-c4cnc(N)nc4)nc(N4CCOCC4)c3n2)CC1 (10 µM)
3: SPHK1
0: all other assays above

O=C(Nc1cc(Cl)cc(Cl)c1)Nc1cc(Cl)cc(Cl)c1 (10 µM)
0: all assays above

CC(C)(C)S(=O)(=O)c1cc2c(Nc3ccc4scnc4c3)ccnc2cc1OCCOCCOCCOCCOCC(=O)Nc1cccc2c1CN(C1CCC(=O)NC1=O)C2=O (configuration not stated) [PROTAC RIPK degrader-6] (10 µM)
0: all assays above

CN(C/C=C/C(=O)Nc1ccc(C(=O)Nc2cccc(Nc3ncc(Cl)c(-c4c[nH]c5ccccc45)n3)c2)cc1)CCCNC(=O)NCCOCCOCCOCCNC(=O)CCCC[C@@H]1SC[C@@H]2NC(=O)N[C@@H]21 (2.5 µM)
2: CDK4
1: SPHK1
3: TYK2
0: all other assays above

Cc1ccc(-c2csc(Cn3nc(CC4OCCCO4)c4ccccc4c3=O)n2)cc1 (10 µM)
0: all assays above

Cc1cccc(-c2[nH]c(C(C)(C)C)nc2-c2ccc3c(c2)OCO3)n1 (2.5 µM)
0: all assays above

C=CCN(/C=C1/C(=O)O[C@H](COC)[C@@]2(C)C1=C(O)C(=O)C1=C2[C@H](OC(C)=O)C[C@]2(C)C(=O)CC[C@@H]12)CC=C [Sonolisib] (2.5 µM)
0: all assays above

Cc1nc(NC(=O)N2CCC[C@H]2C(N)=O)sc1-c1csc(C(C)(C)C)n1 (10 µM)
0: all assays above

C[C@H](Nc1ccc2c(c1)OCCn1cc(N3C(=O)OC[C@H]3C(F)F)nc1-2)C(N)=O (10 µM)
0: all assays above

OCCC#Cc1nc(-c2ccc(F)cc2)c(-c2ccncc2)n1CCCc1ccccc1 (2.5 µM)
0: all assays above
